Source: PMC5297248
These are yes or no findings as the source states them, for the method shown. Some results given as binding are weak or reduced against the parent protein; the word gives no strength.

Target: T1, Annexin A5 (human (endogenous in primary trophoblasts)), P08758
T1 chain: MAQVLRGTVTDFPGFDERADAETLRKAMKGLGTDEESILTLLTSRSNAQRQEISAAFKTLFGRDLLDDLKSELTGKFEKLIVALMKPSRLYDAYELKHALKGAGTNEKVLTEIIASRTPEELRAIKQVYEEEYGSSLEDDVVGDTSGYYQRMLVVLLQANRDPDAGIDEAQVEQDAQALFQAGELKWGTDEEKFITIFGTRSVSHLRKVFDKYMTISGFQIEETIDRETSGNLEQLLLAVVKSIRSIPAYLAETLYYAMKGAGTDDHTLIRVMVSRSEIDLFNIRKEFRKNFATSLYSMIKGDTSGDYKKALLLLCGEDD
Assay: far-Western, overlay or dot blot; plasma membrane fractions of cytotrophoblasts or syncytiotrophoblasts resolved by SDS-PAGE and blotted to nitrocellulose; overlaid 16 h at 4 °C with 0.5 μM AnxA5-CF770 alone or with an excess of unlabelled AnxA5 (1 μM); bands that were competed were identified by nanoLC-LTQ Orbitrap mass spectrometry of tryptic digests (Mascot score >30); only the binder purified
Conditions: remark: other sources report otherwise

- binding: binds
B1: AnxA5-CF770, P08758 1-320 (protein)
chain: MAQVLRGTVTDFPGFDERADAETLRKAMKGLGTDEESILTLLTSRSNAQRQEISAAFKTLFGRDLLDDLKSELTGKFEKLIVALMKPSRLYDAYELKHALKGAGTNEKVLTEIIASRTPEELRAIKQVYEEEYGSSLEDDVVGDTSGYYQRMLVVLLQANRDPDAGIDEAQVEQDAQALFQAGELKWGTDEEKFITIFGTRSVSHLRKVFDKYMTISGFQIEETIDRETSGNLEQLLLAVVKSIRSIPAYLAETLYYAMKGAGTDDHTLIRVMVSRSEIDLFNIRKEFRKNFATSLYSMIKGDTSGDYKKALLLLCGEDD
modifications: here or on the partner: CF770 dye conjugate (site not stated)
